# Measurements published in PubChem BioAssay AID206 (DTP/NCI, 2004).
# The list shows only some results of the screen, not a fair sample: it is rich in T/C values a quarter to a half above the control, in often repeated tests (any T/C) and in doses without a T/C. Further doses and runs are listed elsewhere. T/C is the treated group as % of the vehicle group. Schedule codes are those of the source, read here as Q, the interval in days (D) or hours (H), X, the number of doses. Some doses were run more than once; their values stand side by side, smallest first. Some T/C values are followed by the survivors on the day toxicity was checked, most often the fifth; where none is given, no animal had died by that day. Some values lie below zero, which means that the treated tumours became smaller. Some entries give survivors of the animals treated and no T/C: the source files T/C as zero there, which appears to mark a toxic dose or a test without result, not a measured value. Counts of survivors are from the toxicity check (mostly the fifth day) where no day follows; animals may have died later.
# Tested on: nude mice, HT29 intrarenal xenograft, tumor weight T/C
# Test: NCI In Vivo Anticancer Drug Screen. Data for tumor model HT29;CX-1 Human Adenocarcinoma (MER+) (intrarenal inoculation) in NU/NU Swiss (nude) mice
# Conditions: T/C endpoint: mean tumor weight change, higher T/C = larger tumour
# Summary of the method: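 Readout: treated/vehicle-control ratio of the measured endpoint (tumor size or survival) in transplanted-tumor mice.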
# [1] = dose: 100.0 mg/kg/injection, schedule: Q04DX004 (sc), vehicle: water
structure (smiles),measurement,setting,value
COc1cccc2c1C(=O)c1c(O)c3c(c(O)c1C2=O)CC(O)(/C(C)=N/NC(=O)CCCCC(=O)N/N=C(\C)C1(O)Cc2c(O)c4c(c(O)c2C(OC2CC(N)C(O)C(C)O2)C1)C(=O)c1c(OC)cccc1C4=O)CC3OC1CC(N)C(O)C(C)O1 (stereo not drawn),survivor count,[1],0 of 6 on day 15
same,survivor count,"dose: 200.0 mg/kg/injection, schedule: Q04DX004 (sc), vehicle: water",0 of 6 on day 15
same,survivor count,"dose: 400.0 mg/kg/injection, schedule: Q04DX004 (sc), vehicle: water",0 of 6 on day 15
COc1ccc(-c2cc(C(=O)Nc3cc(C(F)(F)F)cc(C(F)(F)F)c3)c3ccccc3n2)cc1,T/C,"dose: 150.0 mg/kg/injection, schedule: Q04DX004 (ip), vehicle: DMSO, evaluated on day 15",135 % of control
same,survivor count,"dose: 1200.0 mg/kg/injection, schedule: Q04DX004 (ip), vehicle: DMSO",1 of 6 on day 15
COc1cccc2c1C(=O)c1c(O)c3c(c(O)c1C2=O)C[C@@](O)(C(C)=O)C[C@@H]3OC1CC(N(C)C)C(O)C(C)O1 (stereo partly drawn),survivor count,"dose: 8.0 mg/kg/injection, schedule: Q01DX010 (sc), vehicle: saline",0 of 3 on day 20
same,survivor count,"dose: 16.0 mg/kg/injection, schedule: Q01DX010 (sc), vehicle: saline",0 of 3 on day 20
same,survivor count,"dose: 20.0 mg/kg/injection, schedule: Q04DX004 (sc), vehicle: water",1 of 3 on day 15
NC(=O)/C=C/C(=O)c1c(Cl)cccc1Cl,T/C,"dose: 18.0 mg/kg/injection, schedule: Q04DX004 (sc), vehicle: saline with Tween-80, evaluated on day 15",126 % of control
same,survivor count,"dose: 72.0 mg/kg/injection, schedule: Q04DX004 (sc), vehicle: saline with Tween-80",0 of 6 on day 15
same,survivor count,"dose: 144.0 mg/kg/injection, schedule: Q04DX004 (sc), vehicle: saline with Tween-80",0 of 6 on day 15
NC(=O)c1ncn(C2OC(CO)C(O)C2O)n1 (stereo not drawn),survivor count,"dose: 1800.0 mg/kg/injection, schedule: Q04DX004 (sc), vehicle: saline",0 of 6 on day 15
Nc1cc2[nH]cnc2c(=O)[nH]1,survivor count,"dose: 100.0 mg/kg/injection, schedule: Q01DX010 (sc), vehicle: saline",0 of 3 on day 11
same,survivor count,"dose: 200.0 mg/kg/injection, schedule: Q01DX010 (sc), vehicle: saline",0 of 3 on day 11
O=C1c2ccccc2C(=O)c2c(NCCNCCO)ccc(NCCNCCO)c21,T/C,"dose: 4.0 mg/kg/injection, schedule: Q01DX010 (sc), vehicle: water, evaluated on day 11","29, 40, 66, 70 % of control"
same,T/C,"dose: 8.0 mg/kg/injection, schedule: Q01DX010 (sc), vehicle: water, evaluated on day 11","-34 [2 of 2 alive on day 11], 20 [2 of 3 alive on day 11], 59, 60 % of control"
same,T/C,"dose: 16.0 mg/kg/injection, schedule: Q01DX010 (sc), vehicle: water, evaluated on day 11","-13, 19 [2 of 3 alive on day 11], 59 % of control"
same,survivor count,"dose: 16.0 mg/kg/injection, schedule: Q01DX010 (sc), vehicle: water",0 of 3 on day 11
same,survivor count,"dose: 32.0 mg/kg/injection, schedule: Q01DX010 (sc), vehicle: water",0 of 3 on day 11 and 1 of 6 on day 11
ClC1=C(Cl)C(Cl)=C(Cl)C1=Cc1ccccc1,T/C,"dose: 25.0 mg/kg/injection, schedule: Q04DX004 (sc), vehicle: saline with Tween-80, evaluated on day 15",131 % of control
same,T/C,"dose: 100.0 mg/kg/injection, schedule: Q04DX004 (sc), vehicle: saline with Tween-80, evaluated on day 15",125 % of control
same,T/C,"dose: 200.0 mg/kg/injection, schedule: Q04DX004 (sc), vehicle: saline with Tween-80, evaluated on day 15",131 % of control
COc1cccc2c1C(=O)c1c(O)c3c(c(O)c1C2=O)CC(O)(C(=O)CO)CC3OC1CC(N)C(O)C(C)O1 (stereo not drawn),T/C,"dose: 12.0 mg/kg/injection, schedule: Q01DX010 (sc), vehicle: saline, evaluated on day 11",133 % of control
same,T/C,"dose: 24.0 mg/kg/injection, schedule: Q01DX010 (sc), vehicle: saline, evaluated on day 11",140 % of control
same,survivor count,"dose: 96.0 mg/kg/injection, schedule: Q01DX010 (sc), vehicle: saline",0 of 3 on day 11
c1ccc([P+](c2ccccc2)(c2ccccc2)c2ccccc2)cc1,survivor count,"dose: 40.0 mg/kg/injection, schedule: Q04DX004 (sc), vehicle: saline",0 of 6 on day 15
O=NNc1ccccn1,T/C,"dose: 0.5 mg/kg/injection, schedule: Q01DX010 (sc), vehicle: saline, evaluated on day 11",131 % of control [2 of 2 alive on day 11]
same,T/C,"dose: 1.0 mg/kg/injection, schedule: Q01DX010 (sc), vehicle: saline, evaluated on day 11",132 % of control
same,T/C,"dose: 2.0 mg/kg/injection, schedule: Q01DX010 (sc), vehicle: saline, evaluated on day 11",125 % of control
same,T/C,"dose: 16.0 mg/kg/injection, schedule: Q01DX010 (sc), vehicle: saline, evaluated on day 11",146 % of control
same,survivor count,"dose: 64.0 mg/kg/injection, schedule: Q01DX010 (sc), vehicle: saline",1 of 6 on day 11
same,survivor count,"dose: 128.0 mg/kg/injection, schedule: Q01DX010 (sc), vehicle: saline",0 of 6 on day 11
CC(C)=CC(=O)OC1C2C(C)=CC(=O)C(O)C2(C)C2C3(O)OCC24C(CC(=O)OC14)C(C)C3O (stereo not drawn),T/C,"dose: 2.5 mg/kg/injection, schedule: Q04DX004 (sc), vehicle: saline with Tween-80, evaluated on day 15",134 % of control
same,survivor count,"dose: 10.0 mg/kg/injection, schedule: Q04DX004 (sc), vehicle: distilled water + Tween-80",0 of 3 on day 15 and 0 of 6 on day 15
same,survivor count,"dose: 10.0 mg/kg/injection, schedule: Q04DX004 (sc), vehicle: saline with Tween-80",0 of 3 on day 15
C=C1C(=O)OCC1C(=O)O (stereo not drawn),survivor count,"dose: 400.0 mg/kg/injection, schedule: Q04DX004 (sc), vehicle: suspension in saline",0 of 6 on day 15
CCc1ncnc2cc(OCC3CO3)c(OC)cc12 (stereo not drawn),survivor count,"dose: 200.0 mg/kg/injection, schedule: Q04DX004 (sc), vehicle: saline",0 of 6 on day 15
CC1CN1C(=O)NCCCCCCNC(=O)N1CC1C (stereo not drawn),T/C,"dose: 10.0 mg/kg/injection, schedule: Q04DX004 (sc), vehicle: Klucel (hydroxypropylcellulose) (HPC), evaluated on day 15",131 % of control
same,survivor count,"dose: 40.0 mg/kg/injection, schedule: Q04DX004 (sc), vehicle: Klucel (hydroxypropylcellulose) (HPC)",0 of 6 on day 15
same,survivor count,"dose: 60.0 mg/kg/injection, schedule: Q04DX004 (sc), vehicle: Klucel (hydroxypropylcellulose) (HPC)",0 of 6 on day 15
same,survivor count,"dose: 80.0 mg/kg/injection, schedule: Q04DX004 (sc), vehicle: Klucel (hydroxypropylcellulose) (HPC)",1 of 6 on day 15
Cc1c(N)nc(C(CC(N)=O)NCC(N)C(N)=O)nc1C(=O)NC(C(=O)NC(C)C(O)CC(=O)NC(C(=O)NC(OC1OC(C)C(N)C(O)C1O)C(O)c1nc(-c2nc(C(=O)NCCCC(N)CC(=O)NCCCNCCCCN)cs2)cs1)C(C)O)C(OC1OC(CO)C(O)C(O)C1OC1OC(CO)C(O)C(OC(N)=O)C1O)c1cnc[nH]1 (stereo not drawn),survivor count,"dose: 32.0 mg/kg/injection, schedule: Q04DX004 (sc), vehicle: saline",0 of 3 on day 15
same,survivor count,"dose: 64.0 mg/kg/injection, schedule: Q04DX004 (sc), vehicle: saline",0 of 3 on day 15
O=NN(CCCl)C(=O)Oc1cc(Cl)c(Cl)cc1Cl,T/C,"dose: 75.0 mg/kg/injection, schedule: Q04DX004 (sc), vehicle: Klucel (hydroxypropylcellulose) (HPC), evaluated on day 15",132 % of control
CC(=O)Oc1c(C)[nH]ccc1=O,T/C,"dose: 300.0 mg/kg/injection, schedule: Q04DX004 (sc), vehicle: suspension in saline, evaluated on day 15",131 % of control
same,survivor count,"dose: 2400.0 mg/kg/injection, schedule: Q04DX004 (sc), vehicle: suspension in saline",1 of 6 on day 15
CCCCCn1c(C)cc(/C=C\c2ccc3cc(C)ccc3[n+]2C)c1C,survivor count,"dose: 8.0 mg/kg/injection, schedule: Q01DX010 (sc), vehicle: Klucel (hydroxypropylcellulose) (HPC)",0 of 3 on day 20
C1CC[N-]CC1.[Cl][Pt+2][Cl].[NH-]C1CC1,survivor count,[1],0 of 6 on day 15
O=c1n[n+]([O-])ccn1C1OC(CO)C(O)C1O (stereo not drawn),survivor count,"dose: 2000.0 mg/kg/injection, schedule: Q04DX004 (sc), vehicle: suspension in saline",0 of 6 on day 15
Cn1c2nc(=O)n(-c3ccccc3)c(=O)c-2nc2c1CCCC2,survivor count,"dose: 600.0 mg/kg/injection, schedule: Q04DX004 (sc), vehicle: saline with Tween-80",0 of 6 on day 15
same,survivor count,"dose: 1200.0 mg/kg/injection, schedule: Q04DX004 (sc), vehicle: saline with Tween-80",0 of 6 on day 15
O=[Te]=O,survivor count,"dose: 100.0 mg/kg/injection, schedule: Q04DX004 (sc), vehicle: Klucel (hydroxypropylcellulose) (HPC)",0 of 6 on day 15
same,survivor count,"dose: 200.0 mg/kg/injection, schedule: Q04DX004 (sc), vehicle: Klucel (hydroxypropylcellulose) (HPC)",0 of 6 on day 15
